These are yes or no findings as the source states them, for the method shown. Binding can be weak; no strength is given.

Chains of the proteins cited; added tags and fusions are not shown. Lines headed by an entry give the natural chain unless they say otherwise; changes in a name come on top.
UniProt Q23146: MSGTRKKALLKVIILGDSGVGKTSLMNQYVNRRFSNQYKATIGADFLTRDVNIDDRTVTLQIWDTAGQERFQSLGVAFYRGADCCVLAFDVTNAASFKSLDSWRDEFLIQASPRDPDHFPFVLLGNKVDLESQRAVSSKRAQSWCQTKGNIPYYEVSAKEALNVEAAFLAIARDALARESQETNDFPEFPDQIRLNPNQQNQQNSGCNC

Consider 1 substance from doi:10.1101/2025.01.22.634223.

The target of the assay is GST::RAB-7 (C. elegans) (UniProt Q23146). The assay is described as follows: pull-down.

As for “6HIS::MYC::RAB-1::6HIS (from UniProt Q9UAQ6)”, the binding result was “binds”.
